These are yes or no findings as the source states them, for the method shown. In cells and extracts the contact can be indirect. Some binding calls cover weakened binding; strength is not graded here.
Columns and labels:
BRCA1 (human) [1] = target: BRCA1 (human) (UniProt P38398); assay: AP-MS, 3xFLAG-Spinophilin bait, MDA-MB-231 cells
PPP1CA (human) [2] = target: PPP1CA (human) (UniProt P62136); assay: AP-MS, 3xFLAG-Spinophilin bait, MDA-MB-231 cells
PPP1CB (human) [3] = target: PPP1CB (human) (UniProt P62140); assay: AP-MS, 3xFLAG-Spinophilin bait, MDA-MB-231 cells
PPP1CC (human) [4] = target: PPP1CC (human) (UniProt P36873); assay: AP-MS, 3xFLAG-Spinophilin bait, MDA-MB-231 cells
BRCA1 (human) [5] = target: BRCA1 (human) (UniProt P38398); assay: reciprocal AP-MS, 3xFLAG-Spinophilin bait, MDA-MB-231 cells
MCM10 (human) = target: T1, MCM10 (human) (UniProt Q7L590); assay: as above
T1 sequence (looked up): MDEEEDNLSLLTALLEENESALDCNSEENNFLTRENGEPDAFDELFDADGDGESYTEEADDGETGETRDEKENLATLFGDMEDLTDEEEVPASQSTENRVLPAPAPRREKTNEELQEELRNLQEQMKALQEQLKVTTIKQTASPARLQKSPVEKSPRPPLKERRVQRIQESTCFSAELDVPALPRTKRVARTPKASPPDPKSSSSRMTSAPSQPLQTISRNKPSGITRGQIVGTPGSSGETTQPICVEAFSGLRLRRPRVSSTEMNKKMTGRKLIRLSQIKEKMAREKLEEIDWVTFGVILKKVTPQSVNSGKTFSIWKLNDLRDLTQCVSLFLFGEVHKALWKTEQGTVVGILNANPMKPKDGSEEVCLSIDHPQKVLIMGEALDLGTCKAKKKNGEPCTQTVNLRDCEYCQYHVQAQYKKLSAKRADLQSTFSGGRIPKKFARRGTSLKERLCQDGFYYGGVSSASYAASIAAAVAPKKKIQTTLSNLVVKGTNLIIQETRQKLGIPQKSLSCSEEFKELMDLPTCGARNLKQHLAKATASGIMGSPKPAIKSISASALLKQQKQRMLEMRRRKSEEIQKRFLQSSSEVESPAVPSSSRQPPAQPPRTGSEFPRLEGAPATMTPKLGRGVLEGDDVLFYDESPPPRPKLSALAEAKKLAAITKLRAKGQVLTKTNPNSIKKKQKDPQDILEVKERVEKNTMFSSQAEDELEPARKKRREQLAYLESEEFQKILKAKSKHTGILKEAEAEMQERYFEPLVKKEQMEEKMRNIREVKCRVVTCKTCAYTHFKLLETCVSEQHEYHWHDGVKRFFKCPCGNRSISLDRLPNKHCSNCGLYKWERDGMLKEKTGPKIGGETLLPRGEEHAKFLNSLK

Chains of the proteins cited; added tags and fusions are not shown. Residues count along the entry.
UniProt P38398: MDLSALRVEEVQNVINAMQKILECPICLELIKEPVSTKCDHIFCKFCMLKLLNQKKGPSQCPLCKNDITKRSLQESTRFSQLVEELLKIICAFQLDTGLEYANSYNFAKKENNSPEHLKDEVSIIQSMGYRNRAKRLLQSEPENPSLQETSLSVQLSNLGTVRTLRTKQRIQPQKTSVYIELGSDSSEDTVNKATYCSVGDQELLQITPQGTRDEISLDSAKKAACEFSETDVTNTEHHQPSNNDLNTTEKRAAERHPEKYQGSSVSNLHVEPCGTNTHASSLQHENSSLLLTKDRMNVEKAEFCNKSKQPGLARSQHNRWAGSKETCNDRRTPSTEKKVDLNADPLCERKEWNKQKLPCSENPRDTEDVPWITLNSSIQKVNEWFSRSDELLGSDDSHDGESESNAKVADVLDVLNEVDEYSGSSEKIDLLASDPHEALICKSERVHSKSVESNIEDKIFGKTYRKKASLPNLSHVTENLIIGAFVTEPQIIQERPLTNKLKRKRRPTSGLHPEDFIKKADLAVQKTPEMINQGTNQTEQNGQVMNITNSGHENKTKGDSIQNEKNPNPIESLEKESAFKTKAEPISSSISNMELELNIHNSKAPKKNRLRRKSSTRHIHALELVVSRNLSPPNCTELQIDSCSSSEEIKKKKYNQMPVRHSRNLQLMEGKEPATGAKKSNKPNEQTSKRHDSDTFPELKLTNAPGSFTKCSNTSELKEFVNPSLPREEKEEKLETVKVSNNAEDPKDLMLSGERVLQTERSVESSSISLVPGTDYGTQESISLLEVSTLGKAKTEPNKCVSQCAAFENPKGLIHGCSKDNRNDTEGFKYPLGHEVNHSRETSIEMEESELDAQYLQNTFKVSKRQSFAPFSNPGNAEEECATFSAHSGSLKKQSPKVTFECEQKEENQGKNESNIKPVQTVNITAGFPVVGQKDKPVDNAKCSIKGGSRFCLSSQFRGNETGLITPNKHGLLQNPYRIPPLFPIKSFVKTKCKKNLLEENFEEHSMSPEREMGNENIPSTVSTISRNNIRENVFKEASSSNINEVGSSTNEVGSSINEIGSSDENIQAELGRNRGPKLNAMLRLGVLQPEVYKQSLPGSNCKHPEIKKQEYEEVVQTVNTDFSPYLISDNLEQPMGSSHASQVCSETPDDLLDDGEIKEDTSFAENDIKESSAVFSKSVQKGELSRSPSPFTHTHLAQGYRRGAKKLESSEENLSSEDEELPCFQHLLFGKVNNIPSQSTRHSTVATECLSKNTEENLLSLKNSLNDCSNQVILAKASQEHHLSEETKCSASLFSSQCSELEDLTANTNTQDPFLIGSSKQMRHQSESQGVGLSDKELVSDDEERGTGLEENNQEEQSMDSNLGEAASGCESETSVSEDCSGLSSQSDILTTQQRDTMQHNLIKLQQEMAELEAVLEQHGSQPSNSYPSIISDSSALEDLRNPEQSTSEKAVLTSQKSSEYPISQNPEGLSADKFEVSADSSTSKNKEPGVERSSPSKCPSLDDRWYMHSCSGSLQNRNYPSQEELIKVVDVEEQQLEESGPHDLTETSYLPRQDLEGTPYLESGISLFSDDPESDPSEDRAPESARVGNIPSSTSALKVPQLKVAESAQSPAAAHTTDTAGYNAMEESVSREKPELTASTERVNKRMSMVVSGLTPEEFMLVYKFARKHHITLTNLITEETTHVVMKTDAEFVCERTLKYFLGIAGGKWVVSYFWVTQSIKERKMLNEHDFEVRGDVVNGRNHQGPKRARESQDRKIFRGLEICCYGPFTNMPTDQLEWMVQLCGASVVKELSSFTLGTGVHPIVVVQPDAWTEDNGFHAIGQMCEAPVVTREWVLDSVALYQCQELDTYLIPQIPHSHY
UniProt P62136, residues 2-330: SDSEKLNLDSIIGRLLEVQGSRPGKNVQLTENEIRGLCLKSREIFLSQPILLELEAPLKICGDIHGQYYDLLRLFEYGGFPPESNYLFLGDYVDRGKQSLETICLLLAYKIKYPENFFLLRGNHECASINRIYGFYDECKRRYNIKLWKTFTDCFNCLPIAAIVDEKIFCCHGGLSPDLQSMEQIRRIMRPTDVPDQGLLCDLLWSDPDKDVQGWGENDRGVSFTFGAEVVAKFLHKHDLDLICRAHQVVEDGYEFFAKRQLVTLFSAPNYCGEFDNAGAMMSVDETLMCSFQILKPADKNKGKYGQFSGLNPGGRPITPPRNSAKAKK
UniProt P62140, residues 2-327: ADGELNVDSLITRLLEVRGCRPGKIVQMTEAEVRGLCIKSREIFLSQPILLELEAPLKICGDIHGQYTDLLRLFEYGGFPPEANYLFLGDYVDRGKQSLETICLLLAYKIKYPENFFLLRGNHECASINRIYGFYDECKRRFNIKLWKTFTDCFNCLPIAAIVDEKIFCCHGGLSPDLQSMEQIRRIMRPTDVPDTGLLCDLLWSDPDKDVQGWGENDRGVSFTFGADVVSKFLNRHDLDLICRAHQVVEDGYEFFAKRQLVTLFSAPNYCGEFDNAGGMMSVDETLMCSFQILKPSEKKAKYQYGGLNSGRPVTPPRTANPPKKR
UniProt P36873, residues 2-323: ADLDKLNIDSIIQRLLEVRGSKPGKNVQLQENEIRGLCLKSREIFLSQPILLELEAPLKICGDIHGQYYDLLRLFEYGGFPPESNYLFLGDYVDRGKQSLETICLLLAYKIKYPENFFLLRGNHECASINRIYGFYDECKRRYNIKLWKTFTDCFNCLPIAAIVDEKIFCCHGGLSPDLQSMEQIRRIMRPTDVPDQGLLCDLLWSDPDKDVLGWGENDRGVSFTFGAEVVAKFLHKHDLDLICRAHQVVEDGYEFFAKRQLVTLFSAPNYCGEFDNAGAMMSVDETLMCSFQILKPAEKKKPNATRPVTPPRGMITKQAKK
UniProt Q8TAF3: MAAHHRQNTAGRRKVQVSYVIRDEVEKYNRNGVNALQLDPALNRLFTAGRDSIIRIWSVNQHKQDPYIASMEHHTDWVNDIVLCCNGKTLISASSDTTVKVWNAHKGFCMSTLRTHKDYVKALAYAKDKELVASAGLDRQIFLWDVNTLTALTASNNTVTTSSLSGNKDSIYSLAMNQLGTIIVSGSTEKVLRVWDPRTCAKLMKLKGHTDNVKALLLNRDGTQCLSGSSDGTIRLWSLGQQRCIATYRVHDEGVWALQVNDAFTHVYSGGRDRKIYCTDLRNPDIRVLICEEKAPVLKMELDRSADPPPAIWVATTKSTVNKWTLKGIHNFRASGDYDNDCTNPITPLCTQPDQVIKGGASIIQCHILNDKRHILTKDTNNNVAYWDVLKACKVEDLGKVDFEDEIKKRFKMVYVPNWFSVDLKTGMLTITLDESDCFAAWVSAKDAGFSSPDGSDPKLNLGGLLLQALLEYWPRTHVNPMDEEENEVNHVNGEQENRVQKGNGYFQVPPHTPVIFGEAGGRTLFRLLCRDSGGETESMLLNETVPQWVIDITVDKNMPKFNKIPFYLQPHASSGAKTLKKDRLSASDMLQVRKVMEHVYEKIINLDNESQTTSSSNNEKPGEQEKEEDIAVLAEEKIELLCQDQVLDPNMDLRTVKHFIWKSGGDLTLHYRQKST
UniProt Q96SB3: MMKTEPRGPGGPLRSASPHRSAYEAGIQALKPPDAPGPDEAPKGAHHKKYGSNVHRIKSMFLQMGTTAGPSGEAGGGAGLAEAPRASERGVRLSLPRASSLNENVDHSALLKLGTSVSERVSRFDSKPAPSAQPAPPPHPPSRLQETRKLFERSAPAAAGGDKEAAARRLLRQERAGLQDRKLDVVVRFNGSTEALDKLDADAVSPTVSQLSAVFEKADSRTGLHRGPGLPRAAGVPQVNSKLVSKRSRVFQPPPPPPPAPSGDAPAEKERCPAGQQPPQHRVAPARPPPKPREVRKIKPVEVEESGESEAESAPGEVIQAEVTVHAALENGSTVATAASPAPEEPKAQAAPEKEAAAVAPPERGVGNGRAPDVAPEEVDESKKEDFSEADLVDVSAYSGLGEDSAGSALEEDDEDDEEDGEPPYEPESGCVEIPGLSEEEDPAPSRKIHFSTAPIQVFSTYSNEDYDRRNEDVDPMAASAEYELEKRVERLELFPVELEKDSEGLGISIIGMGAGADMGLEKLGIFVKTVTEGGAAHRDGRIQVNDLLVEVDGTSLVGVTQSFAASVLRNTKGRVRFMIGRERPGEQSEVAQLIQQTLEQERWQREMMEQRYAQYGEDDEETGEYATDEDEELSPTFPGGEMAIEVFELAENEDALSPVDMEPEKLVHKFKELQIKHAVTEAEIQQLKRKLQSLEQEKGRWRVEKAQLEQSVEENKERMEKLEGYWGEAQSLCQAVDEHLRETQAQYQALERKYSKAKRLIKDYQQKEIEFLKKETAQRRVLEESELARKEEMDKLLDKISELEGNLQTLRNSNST

PPP1CA (human) [6] = target: PPP1CA (human) (UniProt P62136); assay: as above
PPP1CB (human) [7] = target: PPP1CB (human) (UniProt P62140); assay: as above
PPP1CC (human) [8] = target: PPP1CC (human) (UniProt P36873); assay: as above
WDR48 (human) = WDR48 (human) (UniProt Q8TAF3); assay: as above

Measured: binding

Spinophilin (from UniProt Q96SB3 1-817)
binds: all assays above

Reference: patent US20240321457A1, “SYSTEMS FOR AND METHODS OF TREATMENT SELECTION” (THE REGENTS OF THE UNIVERSITY OF CALIFORNIA, priority 2020, published 2024)
